Results are given in words; binding and its absence hold for the method and conditions named. Binding seen in cells or lysates may run through a third protein. Some binding calls cover weakened binding; strength is not graded here.
Target: zinc finger protein 460 (human (endogenous in KG1a and U937)) (UniProt Q14592)
Experiment: co-IP; lysates of KG1a and U937 cells (IP-Western blot lysis buffer); anti-ZNF460 or anti-IgG on Protein A/G magnetic beads, incubated with the supernatant at 4°C for at least 16 h; detection by western blotting

The chains behind the UniProt entries cited, without tags or fusion partners.
UniProt Q14592: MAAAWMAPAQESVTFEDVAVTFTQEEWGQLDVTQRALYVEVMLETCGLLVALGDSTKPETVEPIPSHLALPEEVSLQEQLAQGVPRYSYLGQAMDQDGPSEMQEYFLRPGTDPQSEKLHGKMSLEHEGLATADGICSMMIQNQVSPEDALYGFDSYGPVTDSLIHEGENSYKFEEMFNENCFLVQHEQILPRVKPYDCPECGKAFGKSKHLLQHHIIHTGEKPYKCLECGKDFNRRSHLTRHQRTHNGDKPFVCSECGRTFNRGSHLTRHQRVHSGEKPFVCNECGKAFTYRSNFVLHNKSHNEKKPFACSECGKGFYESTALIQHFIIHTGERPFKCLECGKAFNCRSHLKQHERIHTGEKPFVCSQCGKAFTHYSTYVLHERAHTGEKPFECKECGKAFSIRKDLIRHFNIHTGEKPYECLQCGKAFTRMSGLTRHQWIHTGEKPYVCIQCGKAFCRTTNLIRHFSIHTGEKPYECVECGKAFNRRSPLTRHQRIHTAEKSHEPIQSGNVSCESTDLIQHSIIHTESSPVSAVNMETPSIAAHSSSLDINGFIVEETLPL
UniProt Q86VX2: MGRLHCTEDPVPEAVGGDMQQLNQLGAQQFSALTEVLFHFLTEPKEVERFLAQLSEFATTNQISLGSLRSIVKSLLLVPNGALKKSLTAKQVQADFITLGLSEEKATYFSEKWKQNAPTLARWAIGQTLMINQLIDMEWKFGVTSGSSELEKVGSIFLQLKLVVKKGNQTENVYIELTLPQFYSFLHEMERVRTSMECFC

binding: binds
Substance: COMM domain containing 7 (from UniProt Q86VX2 1-200)
